The record followed here is PubChem BioAssay AID2685 (National Center for Advancing Translational Sciences (NCATS), 2010).

The assay can be described thus: qHTS Assay for Lipid Storage Modulators in Drosophila S3 Cells.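 For cell number change: cells counted by Cell Tracker Red CMTPX staining in the red channel.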 The settings on record: BODIPY lipid droplet fluorescence, 18-24 h; for cell number change: measured here: cell count max response, cells fed with added oleic acid. In short, it runs like this: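 Laser-scanning cytometry quantifies lipid droplet accumulation (500–530 nm total intensity; droplet/cell object ratio) in oleic acid-fed (400 uM added) Drosophila S3 cells treated with a concentration series. 20 uM Triacsin C defined 100% inhibition.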
(In general: qHTS replaces the single test concentration by a dilution series.)

The mark [1] stands for this setting: measured here: lipid fluorescence (Fed channel) AC50, cells fed with added oleic acid.
Where [2] appears, read: measured here: cell number channel AC50, cells fed with added oleic acid.

The other results are listed elsewhere or left out. The main result of the screen is listed elsewhere. These columns were measured beside it and carry no call. Compounds called inactive in the main read-out are mostly missing here. The note in brackets gives the kind of curve behind each potency; many fits are weak.

Take `COc1ccc(S(=O)(=O)N2CCCCC2)cc1NC(=O)c1ccc(N2CCCC2=O)cc1`: the cell number change was found to be 0.937%. In addition, the half-maximal activity concentration (AC50) under setting [1] was 0.82 µM [rising, full curve, poor fit].
In the case of `Cc1ccc(Sc2ncccc2COC(=O)NC(C)C)cc1`, the cell number change stood at 99.8%. Moreover, under setting [2], the AC50 is 14.6 µM [rising, partial curve]. Besides, the half-maximal activity concentration (AC50) under setting [1] is 1.3 µM [rising, partial curve].
As for `CC(C)(C)N(Cc1ccccc1)C(=O)c1ccncc1`, the cell number change is 15.5%.
In the case of `Cn1cccc1/C=N/NC(=O)c1ccc(OC(F)(F)C(F)F)cc1`, the cell number change was 40.1%. In addition, the concentration at half-maximal activity (AC50) under setting [2] is 4.61 µM [rising, partial curve, poor fit].
On to `COc1ccc(/C(N)=N/OC(=O)Oc2ccccc2)cc1`, for which the cell number change was -78.6%. Under setting [2], the AC50 is 7.31 µM [falling, partial curve, poor fit]. Moreover, under setting [1], the AC50 is 2.91 µM [falling, partial curve].
For `CC(=O)c1ccc(NC(=O)COc2ccccc2C(=O)Nc2ccccc2)cc1`, the cell number change is -41.6%. In addition, the AC50 under setting [2] was 29.1 µM [falling, single point]. Besides, the AC50 under setting [1] is 29.1 µM [falling, single point].
With `C[C@@H](NC(=O)[C@@H]1Cc2ccccc2CN1C(=O)OC(C)(C)C)C(=O)NC1CCCC1`, the cell number change is -24.2%. The AC50 under setting [1] is 29.1 µM [falling, single point].
Consider `CCCCCOC(=O)Nc1nnc(CCCCC)s1`, for which, under setting [1], the AC50 was 6.51 µM [falling, single point].
As to `CCN1C(=O)c2cccc3c(S(=O)(=O)NCc4ccccc4)ccc1c23`, the cell number change was -37.9%. In addition, the AC50 under setting [2] was 20.6 µM [falling, single point]. The AC50 under setting [1] is 20.6 µM [falling, single point].
As to `CC(=O)N1CCN(Cc2nc(-c3cccc(Cl)c3)no2)CC1`, the cell number change worked out at 24.2%.
The same measure, in the same setting: with `CC(NC(=S)Nc1ccc(OC(F)F)cc1OC(F)F)C(C)(C)C` (configuration not stated) the figure was -16.1%.
`COC(=O)CNc1nc(Cl)nc(Nc2ccc(Cl)cc2)n1`: the cell number change is -37.1%. In addition, the AC50 under setting [2] was 4.61 µM [falling, full curve, poor fit]. In addition, under setting [1], the AC50 is 6.51 µM [falling, full curve].
For `CCC(C)c1ccccc1NC(=O)CN(C)CCOc1ccc(Cl)cc1` (configuration not stated), the cell number change was 16.7%.
As for `CCCCCCCCO`, the cell number change turned out to be 10.7%. The AC50 under setting [1] was 0.92 µM [rising, single point].
As to `Cc1ccc(/C=N/NC(=O)c2nnn(-c3nonc3N)c2CSc2ccccc2)cc1`, the cell number change worked out at 14.4%. In addition, the AC50 under setting [2] is 0.0058 µM [rising, full curve, poor fit]. The AC50 under setting [1] was 0.184 µM [rising, full curve, poor fit].
Take `CCn1c(Cc2cccs2)nnc1SCC(=O)Nc1ccc(OC)c(OC)c1`: the cell number change stood at 1.23%. The AC50 under setting [1] is 0.651 µM [rising, full curve, poor fit].
Consider `O=C(Cn1nc(-c2ccccc2F)ccc1=O)NCc1ccc2c(c1)OCO2`, for which the cell number change is 13.5%. Further, under setting [2], the AC50 was 0.82 µM [rising, partial curve]. Further, the AC50 under setting [1] was 0.259 µM [rising, full curve].
Consider `CC(C)c1ccc(NC2CCCN(C(=O)c3cccs3)C2)cc1` (configuration not stated), for which the cell number change was found to be 5.2%. Further, the AC50 under setting [1] was 29.1 µM [falling, single point].
As for `Cc1ccc(-n2nnnc2-c2cnn(-c3ccc(F)cc3)c2C(F)(F)F)cc1`, the cell number change was -24.8%. The concentration at half-maximal activity (AC50) under setting [1] was 20.6 µM [falling, partial curve].
For `Cc1cnc(=O)[nH]c1SCc1cccc(C(F)(F)F)c1`, the cell number change was -19.1%. For the same compound, the AC50 under setting [1] was 1.3 µM [rising, full curve, poor fit].
Take `COc1cccc(NS(=O)(=O)c2c(C)cc(C)cc2C)c1`: the cell number change was -54.9%. In addition, the AC50 under setting [2] was 29.1 µM [falling, single point]. For the same compound, the AC50 under setting [1] was 29.1 µM [falling, single point].
On to `C(=C\c1ccccc1)/CSc1nnc(-c2ccncc2)n1Cc1ccco1`, for which the cell number change worked out at 22.8%. Besides, under setting [2], the AC50 was 0.731 µM [rising, full curve, poor fit].
For the compound `OCCNCCCOc1cc(Cl)ccc1Cl`, the cell number change came out at 42.4%.
Turning to `Cc1cccnc1NC(=O)c1ccc(S(=O)(=O)N2CCC(C)CC2)cc1`, the cell number change came to 47.6%. Further, the AC50 under setting [2] was 16.4 µM [rising, single point].
As for `COCCNC(=O)/C(C#N)=C1\N=C(N)c2ccccc21`, the cell number change is -33.3%. The AC50 under setting [2] is 1.84 µM [falling, partial curve]. For the same compound, the AC50 under setting [1] is 6.51 µM [rising, partial curve, poor fit].
For `O=C(c1cc(COc2ccc(F)cc2Cl)on1)N1CC[C@@H]2CCCC[C@H]2C1`, the cell number change was -9.83%. Moreover, under setting [1], the AC50 was 7.31 µM [falling, partial curve].
Regarding `COC(=O)c1ccc2c(=O)[nH]c(COC(=O)c3cccc(S(=O)(=O)N4CCOCC4)c3)nc2c1`, the cell number change was -14.3%. Further, the AC50 under setting [2] was 0.461 µM [falling, full curve, poor fit]. Also, the AC50 under setting [1] was 0.517 µM [falling, full curve].
Regarding `CCc1ccc(Nc2nnc(SCC(=O)Nc3cccc(S(=O)(=O)NC4=NCCCCC4)c3)s2)cc1`, the cell number change is -100%. For the same compound, under setting [2], the AC50 was 9.2 µM [falling, partial curve, poor fit]. In addition, the AC50 under setting [1] was 32.6 µM [falling, single point].
Consider `CCc1nnc(NC(=O)CN2CCOCC2)s1`, for which the cell number change was -10.2%. Further, the AC50 under setting [1] was 0.146 µM [falling, full curve, poor fit].
For `CC(C)NC(=O)c1ccc(S(=O)(=O)N(C)C)cc1`, the cell number change is -48.7%.
Regarding `CC(C)(CCl)C(=O)Nc1ccc(C(F)(F)F)cc1`, the cell number change stood at 3.26%. The AC50 under setting [2] is 2.59 µM [falling, partial curve]. Moreover, the AC50 under setting [1] was 2.59 µM [falling, partial curve, poor fit].
In the case of `COc1ccc(S(=O)(=O)N2CCC(NC(=O)c3cccnc3)CC2)cc1`, the cell number change was -16.7%. Under setting [1], the AC50 is 0.103 µM [falling, partial curve, poor fit].
In the case of `CC(C)C(=O)N1CCN(c2ccc(NC(=O)c3ccc([N+](=O)[O-])o3)cc2)CC1`, the cell number change is -32.5%. In addition, the AC50 under setting [2] is 16.4 µM [falling, single point]. The AC50 under setting [1] was 9.2 µM [falling, partial curve, poor fit].
Take `c1ccc2c(CCNc3ncnc4nc[nH]c34)cccc2c1`: the cell number change is -23.3%. For the same compound, under setting [1], the AC50 was 29.1 µM [falling, single point].
On to `Cc1ccc(-n2c(SCC(=O)c3c(N)n(C4CC4)c(=O)[nH]c3=O)nnc2N2CCOCC2)cc1`, for which the cell number change was -31.7%.
`O=c1[nH]c(CN2CCN(c3ccccc3Cl)CC2)nc2ccsc12`: the cell number change is 36%. Also, under setting [2], the AC50 is 29.1 µM [rising, single point]. Besides, the AC50 under setting [1] is 29.1 µM [rising, single point].
For the compound `Cn1nnc2cc(C(=O)NCc3ccc4c(c3)OCO4)ccc21`, the cell number change came out at 13.3%. Also, the AC50 under setting [1] is 3.66 µM [rising, full curve].
Regarding `O=C(Nc1ccc(S(=O)(=O)N2CCOCC2)cc1)c1ccc([N+](=O)[O-])o1`, the cell number change is -43.8%. In addition, the AC50 under setting [1] was 29.1 µM [falling, partial curve, poor fit].
As to `Cc1ccccc1NC(=O)Cn1cccc1`, the cell number change is -33.7%. Besides, under setting [1], the AC50 was 14.6 µM [rising, single point].
As to `COc1ccc2nc(C)cc(Nc3cccc(C(=O)O)c3)c2c1`, the cell number change is 9.12%. Besides, under setting [1], the AC50 is 20.6 µM [rising, single point].
For the compound `Cc1cccc2sc(N(CCCN(C)C)C(=O)CCS(=O)(=O)c3ccccc3)nc12`, the cell number change is -10.1%. The AC50 under setting [1] is 0.461 µM [rising, partial curve].
Take `Cc1nc(N2CCN(Cc3ccc4c(c3)OCO4)CC2)[nH]c(=O)c1C`: the cell number change was -20.8%. Moreover, the AC50 under setting [1] was 29.1 µM [falling, single point].
Regarding `COc1ccc(-n2cc(C#N)c(=O)n(Cc3ccc(F)cc3)c2=O)cc1`, the cell number change was 17.2%.
For `CN(C)S(=O)(=O)c1ccc(N2CCCC2)c(C(=O)NNC(=O)c2ccccc2)c1`, the cell number change stood at 36.8%. The AC50 under setting [2] was 18.4 µM [rising, partial curve, poor fit]. Further, the AC50 under setting [1] was 13 µM [rising, partial curve, poor fit].
As to `Cc1cc(C)n2nc(SCC(=O)N/N=C/c3cccc(Br)c3)nc2n1`, the cell number change is -18.9%. In addition, the AC50 under setting [1] was 0.651 µM [rising, full curve].
Turning to `Cc1noc(C)c1CCC(=O)Nc1c(C(C)C)cccc1C(C)C`, the cell number change is -12.8%. Further, the AC50 under setting [2] is 3.26 µM [falling, single point]. In addition, the AC50 under setting [1] is 2.31 µM [falling, single point].
Take `Cc1ccccc1-c1nn2c(-c3ccccc3)nnc2s1`: the cell number change is -29.5%. Under setting [1], the AC50 is 0.461 µM [falling, full curve, poor fit].
As for `Cc1cccc(NC2=NC(C)(C)N=C(N)N2)c1C`, the cell number change was 13.1%.
On to `COc1ccc(C(=O)/C=C2/Sc3cc4c(cc3N2C)OCO4)cc1`, for which the cell number change was determined as 19.3%. The AC50 under setting [1] is 18.4 µM [rising, single point].
As to `CCCc1cc(=O)[nH]c(Nc2ccc(N3CCCCC3)cc2)n1`, the cell number change is -43.3%.
Consider `CCC(OC(=O)c1cccs1)C(=O)NCc1ccc2c(c1)OCO2` (configuration not stated), for which, under setting [1], the AC50 was 0.58 µM [rising, single point].
Turning to `C=C(C)C1CC=C(C)/C(=N/Nc2ccccc2[N+](=O)[O-])C1` (configuration not stated), the cell number change is -53.8%. For the same compound, the AC50 under setting [2] is 3.26 µM [falling, full curve]. Under setting [1], the AC50 was 2.59 µM [falling, full curve].
Turning to `Cc1ccc(S(=O)(=O)/N=C(/Sc2ccccc2C(=O)O)c2ccccc2)cc1`, the cell number change was found to be 36.6%. Also, the AC50 under setting [2] was 2.91 µM [rising, full curve]. Further, the AC50 under setting [1] was 20.6 µM [rising, partial curve].
Turning to `COCCCn1cnnc1SCc1nc2sc(C(C)=O)c(C)c2c(=O)[nH]1`, the cell number change was -6.49%. Besides, under setting [1], the AC50 was 0.731 µM [falling, full curve, poor fit].
As for `CC1=C/C(=N\OS(=O)(=O)c2ccccc2)C(C(C)C)=CC1=O`, the cell number change is -91.2%. For the same compound, the AC50 under setting [2] is 2.06 µM [falling, full curve]. Further, the AC50 under setting [1] was 4.61 µM [falling, full curve].
Regarding `CC(C)(C)c1nnc2sc(SC/C(O)=C(\C#N)c3nc4ccccc4[nH]3)nn2c1=O`, the cell number change is -23.8%. The AC50 under setting [1] was 0.58 µM [rising, single point].
For `CCOc1cc(/C=N/O)cc(Br)c1OCc1ccc(Cl)cc1`, the cell number change is -44.2%. For the same compound, the AC50 under setting [2] is 9.2 µM [falling, partial curve, poor fit]. In addition, the AC50 under setting [1] was 29.1 µM [falling, single point].

What is called AC50 is the midpoint of the concentration-response curve, whichever way the signal moves.
